{
  "source": "paper PMC12888869",
  "about": "(Antimicrobial Agents and Chemotherapy, 2025)",
  "note": "Some peptides are written in HELM: one residue between dots, names in brackets for other building blocks, links after the first $.",
  "data": [
    {"test": "peptide made by a vendor (Fmoc solid-phase peptide synthesis)", "details": "whole synthesis, high-performance liquid chromatography", "units": {"final HPLC purity": "%"}, "values": [
      {"substance": "PEPTIDE1{F.L.A.L.A.L.I.Q.E.A.I.A.K.L.K.[am]}$$$$V2.0", "final HPLC purity": 95.92},
      {"substance": "PEPTIDE1{F.L.K.L.R.L.W.G.K.L.L.W.K.L.K.[am]}$$$$V2.0", "final HPLC purity": 95.34},
      {"substance": "PEPTIDE1{F.L.K.L.R.L.W.G.R.L.L.W.K.L.K.[am]}$$$$V2.0", "final HPLC purity": 96.68},
      {"substance": "PEPTIDE1{F.L.K.L.R.L.W.K.K.L.L.W.K.L.K.[am]}$$$$V2.0", "final HPLC purity": 95.13},
      {"substance": "PEPTIDE1{F.L.K.L.R.L.W.K.R.L.L.W.K.L.K.[am]}$$$$V2.0", "final HPLC purity": 95.43},
      {"substance": "PEPTIDE1{F.L.K.L.R.L.W.R.K.L.L.W.K.L.K.[am]}$$$$V2.0", "final HPLC purity": 95.21},
      {"substance": "PEPTIDE1{F.L.K.L.R.L.W.R.R.L.L.W.K.L.K.[am]}$$$$V2.0", "final HPLC purity": 95.25}
    ]}
  ]
}
